The values below come from ChEMBL document CHEMBL3400046, “Discovery and evaluation of a novel monocyclic series of CXCR2 antagonists” (Bioorg Med Chem Lett, 2015).

This data set is described as follows: physchem. Conditions: octanol/water.
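Further: distribution coefficient determined with the shake-flask method.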

Regarding `C[C@H](CO)Nc1cc(NS(=O)(=O)N2CCOCC2)nc(SCc2cccc(F)c2F)n1`, the logD came out at 2.4.
